Laboratory results reported in paper PMC10559228.
These are yes or no findings as the source states them, for the method shown. Binding seen in cells or lysates may run through a third protein. Some binding calls cover weakened binding; strength is not graded here.

The chains behind the UniProt entries cited, without tags or fusion partners.
UniProt Q9Y463: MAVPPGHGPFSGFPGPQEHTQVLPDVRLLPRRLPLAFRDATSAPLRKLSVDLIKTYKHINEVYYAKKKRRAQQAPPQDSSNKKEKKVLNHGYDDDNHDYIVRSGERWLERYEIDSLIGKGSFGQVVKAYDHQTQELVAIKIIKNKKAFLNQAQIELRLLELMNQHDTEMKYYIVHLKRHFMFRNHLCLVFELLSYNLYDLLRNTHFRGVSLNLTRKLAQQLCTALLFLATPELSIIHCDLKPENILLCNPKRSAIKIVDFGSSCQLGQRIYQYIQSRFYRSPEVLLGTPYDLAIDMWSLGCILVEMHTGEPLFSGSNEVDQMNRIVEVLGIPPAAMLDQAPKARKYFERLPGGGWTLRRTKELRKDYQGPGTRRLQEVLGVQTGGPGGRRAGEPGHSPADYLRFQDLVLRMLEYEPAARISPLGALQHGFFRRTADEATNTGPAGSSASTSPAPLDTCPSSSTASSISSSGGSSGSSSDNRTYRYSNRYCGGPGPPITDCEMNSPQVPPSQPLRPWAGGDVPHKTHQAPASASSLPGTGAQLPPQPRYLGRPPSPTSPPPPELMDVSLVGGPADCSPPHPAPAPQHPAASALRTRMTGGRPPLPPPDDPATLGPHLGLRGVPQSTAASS
UniProt Q9NYF3: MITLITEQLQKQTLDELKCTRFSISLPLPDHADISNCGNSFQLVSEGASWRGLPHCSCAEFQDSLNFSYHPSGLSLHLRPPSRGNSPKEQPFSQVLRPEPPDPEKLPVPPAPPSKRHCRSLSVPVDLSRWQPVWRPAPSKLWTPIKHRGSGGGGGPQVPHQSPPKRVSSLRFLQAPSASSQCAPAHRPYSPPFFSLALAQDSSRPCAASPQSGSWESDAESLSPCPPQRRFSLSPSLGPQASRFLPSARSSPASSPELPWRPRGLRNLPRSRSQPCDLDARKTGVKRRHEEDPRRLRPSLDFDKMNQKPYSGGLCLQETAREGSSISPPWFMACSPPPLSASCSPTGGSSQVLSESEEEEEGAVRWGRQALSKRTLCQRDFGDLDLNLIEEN

Molecular target: 3xFLAG-DYRK1B(WT) (UniProt Q9Y463)
Assay: co-IP; 3xFLAG-DYRK1A (WT or deletion mutants) or 3xFLAG-DYRK1B co-expressed with GFP-FAM53C in COS7; extracts with anti-FLAG resin 12 h at 4°C; Western blot with anti-GFP; in Fig 9 cells with or without Geldanamycin (2.5 μM 4 h)

binding: binds
Substance: GFP-FAM53C (from UniProt Q9NYF3 1-392)
